Test results taken from article PMC11984883, “ACAT1‐Mediated ME2 Acetylation Drives Chemoresistance in Ovarian Cancer by Linking Glutaminolysis to Lactate Production” (Advanced Science, 2025).
These are yes or no findings as the source states them, for the method shown. Binding seen in cells or lysates may run through a third protein. Some binding calls cover weakened binding; strength is not graded here. For part of these data: Where a sequence is shown, tags or fusion partners need not be part of it.

Protein sequences, listed by entry. Tags and fused reporters are not part of them. Residues count along the entry.
UniProt P23368, residues 19-584: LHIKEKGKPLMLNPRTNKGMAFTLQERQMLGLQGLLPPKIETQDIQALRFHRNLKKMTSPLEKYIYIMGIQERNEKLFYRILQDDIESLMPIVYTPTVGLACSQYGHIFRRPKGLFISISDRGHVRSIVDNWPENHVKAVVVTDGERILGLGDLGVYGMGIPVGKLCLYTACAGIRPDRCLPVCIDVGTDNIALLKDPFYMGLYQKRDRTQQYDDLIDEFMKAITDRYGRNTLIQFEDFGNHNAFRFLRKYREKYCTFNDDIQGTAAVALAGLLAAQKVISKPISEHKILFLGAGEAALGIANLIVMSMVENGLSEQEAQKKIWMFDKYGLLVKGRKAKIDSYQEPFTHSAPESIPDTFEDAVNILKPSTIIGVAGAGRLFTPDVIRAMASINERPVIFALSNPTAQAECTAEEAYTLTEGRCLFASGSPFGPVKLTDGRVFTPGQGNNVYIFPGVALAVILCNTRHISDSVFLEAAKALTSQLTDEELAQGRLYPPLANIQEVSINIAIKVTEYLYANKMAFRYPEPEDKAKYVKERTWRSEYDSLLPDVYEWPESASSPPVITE

Legend:
[1] = molecular target: malic enzyme 2 (ME2), in cells (UniProt P23368); test: proximity ligation; in situ PLA with antibodies against the indicated proteins, confocal analysis, cancer cells cultured with high or low glucose
[2] = molecular target: malic enzyme 2 (ME2), in cells (UniProt P23368); test: co-IP; immunoprecipitation and western blot from cells cultured in a series of decreasing glucose concentrations (1X: basic medium glucose level), with a series of pyruvate concentrations plus cisplatin (1 µg/ml, 48 h), or with cisplatin for 48 h (Figure S5B)
ME2-Halo = ME2-Halo (UniProt P23368); test: FRET or BRET; BRET in cancer cells co-transfected with ME2-Halo and ACAT1-Nluc or SIRT4-Nluc for 12 h, cultured in a series of decreasing glucose concentrations (Promega N1821)

B1: acetyl-CoA acetyltransferase 1 (ACAT1), in cells (enzyme, UniProt P24752 34-427)
chain: VSKPTLKEVVIVSATRTPIGSFLGSLSLLPATKLGSIAIQGAIEKAGIPKEEVKEAYMGNVLQGGEGQAPTRQAVLGAGLPISTPCTTINKVCASGMKAIMMASQSLMCGHQDVMVAGGMESMSNVPYVMNRGSTPYGGVKLEDLIVKDGLTDVYNKIHMGSCAENTAKKLNIARNEQDAYAINSYTRSKAAWEAGKFGNEVIPVTVTVKGQPDVVVKEDEEYKRVDFSKVPKLKTVFQKENGTVTAANASTLNDGAAALVLMTADAAKRLNVTPLARIVAFADAAVEPIDFPIAPVYAASMVLKDVGLKKEDIAMWEVNEAFSLVVLANIKMLEIDPQKVNINGGAVSLGHPIGMSGARIVGHLTHALKQGEYGLASICNGGGGASAMLIQKL
For B1, the binding [1] was “binds” and the binding [2] was “binds”.

B2: SIRT4, in cells (enzyme, UniProt Q9Y6E7 29-314)
chain: IGLFVPASPPLDPEKVKELQRFITLSKRLLVMTGAGISTESGIPDYRSEKVGLYARTDRRPIQHGDFVRSAPIRQRYWARNFVGWPQFSSHQPNPAHWALSTWEKLGKLYWLVTQNVDALHTKAGSRRLTELHGCMDRVLCLDCGEQTPRGVLQERFQVLNPTWSAEAHGLAPDGDVFLSEEQVRSFQVPTCVQCGGHLKPDVVFFGDTVNPDKVDFVHKRVKEADSLLVVGSSLQVYSGYRFILTAWEKKLPIAILNIGPTRSDDLACLKLNSRCGELLPLIDPC
With B2 the binding [1] was “binds” and the binding [2] was “binds”.

B3: ACAT1-Nluc (enzyme, UniProt P24752 34-427)
chain: B1 chain
B3 was tested, and the binding (ME2-Halo) was “binds”.

B4: SIRT4-Nluc (enzyme, UniProt Q9Y6E7 29-314)
chain: B2 chain
In the case of B4, the binding (ME2-Halo) is reported as “binds”.
